Experimental data as given in the supplement of paper PMC4604168 (melanoma cell lines).
This is one part of the list. Many values rest on one well or one pass, so single values are uncertain.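 Cells were imaged in 1,536-well plates, and nuclei stained with an antibody against cleaved PARP were counted against all DNA-stained nuclei to give the apoptosis fraction. Screening doses were chosen to leave most cells alive, and resting and induced cleaved-PARP levels differ strongly between cell lines.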

Tests used:
Test in all cases: cleaved PARP positive nuclei fraction relative to DMSO control; melanoma cells; higher = more apoptosis
Details in all cases: library dose: low library concentration; 72 h
MZ2-MEL = test system: MZ2-MEL
MeWo = test system: MeWo
RPMI7951 = test system: RPMI7951
RVH-421 = test system: RVH-421
SkMel28 = test system: SkMel28
SkMel2 = test system: SkMel2
SkMel30 = test system: SkMel30
SkMel5 = test system: SkMel5
UACC257 = test system: UACC257
UACC62 = test system: UACC62
WM115 = test system: WM115
WM1716 = test system: WM1716
WM1745 = test system: WM1745
WM3526 = test system: WM3526
WM3619 = test system: WM3619
WM451Lu = test system: WM451Lu

Row | SMILES | cleaved PARP positive nuclei fraction (MZ2-MEL) | cleaved PARP positive nuclei fraction (MeWo) | cleaved PARP positive nuclei fraction (RPMI7951) | cleaved PARP positive nuclei fraction (RVH-421) | cleaved PARP positive nuclei fraction (SkMel28) | cleaved PARP positive nuclei fraction (SkMel2) | cleaved PARP positive nuclei fraction (SkMel30) | cleaved PARP positive nuclei fraction (SkMel5) | cleaved PARP positive nuclei fraction (UACC257) | cleaved PARP positive nuclei fraction (UACC62) | cleaved PARP positive nuclei fraction (WM115) | cleaved PARP positive nuclei fraction (WM1716) | cleaved PARP positive nuclei fraction (WM1745) | cleaved PARP positive nuclei fraction (WM3526) | cleaved PARP positive nuclei fraction (WM3619) | cleaved PARP positive nuclei fraction (WM451Lu)
1 | C[C@]1(O)C[C@@H](c2nc(-c3ccc4ccc(-c5ccccc5)nc4c3)c3c(N)nccn32)C1 + O=C(CCCCCCC(=O)Nc1ccccc1)NO [vorinostat] (first compound 0.4 µM, partner dose 0.08 µM) | 258% | 53.9% | 49% | 44.6% | 90.9% | 86.8% | 71.4% | 194% | 257% | 368% | 63.2% | 121% | 99.8% | 162% | 116% | 89.4%
2 | CS(=O)(=O)c1ccc(C(=O)Nc2ccc(Cl)c(-c3ccccn3)c2)c(Cl)c1 [vismodegib] + Oc1cc(-c2nc(-c3ccccc3)[nH]c2-c2ccncc2)ccc1Cl [L779450] (first compound 1 µM, partner dose 0.2 µM) | 38.2% | 88.2% | 74.1% | 93.4% | 136% | 95.8% | 18.1% | 81.7% | 99.6% | 145% | 66.3% | 121% | 104% | 23.1% | 91.3% | 69.9%
3 | CC1(C)CCC(c2ccc(Cl)cc2)=C(CN2CCN(c3ccc(C(=O)NS(=O)(=O)c4ccc(N[C@H](CCN5CCOCC5)CSc5ccccc5)c(S(=O)(=O)C(F)(F)F)c4)cc3)CC2)C1 + c1cc(-c2cnn3cc(-c4ccc(OCCN5CCCCC5)cc4)cnc23)ccn1 [Dorsomorphin] (first compound 0.4 µM, partner dose 0.4 µM) | 231% | 221% | 76.2% | 92.7% | 128% | 54.9% | 36.7% | 268% | 158% | 152% | 194% | 110% | 817% | 87.8% | 105% | 83.8%
4 | COc1ccc(C2=N[C@@H](c3ccc(Cl)cc3)[C@@H](c3ccc(Cl)cc3)N2C(=O)N2CCNC(=O)C2)c(OC(C)C)c1 [Nutlin-3] + OCCn1cc(-c2cnc3nnn(Cc4ccc5ncccc5c4)c3n2)cn1 [PF04217903] (first compound 0.1 µM, partner dose 1 µM) | 85.7% | 307% | 112% | 83.3% | 68.7% | 131% | 68.8% | 195% | 134% | 63.1% | 69.2% | 109% | 84.4% | 197% | 105% | 51.5%
5 | CC(=O)O[C@@]12CO[C@@H]1C[C@H](O)[C@@]1(C)C(=O)[C@H](O)C3=C(C)[C@@H](OC(=O)[C@H](O)[C@@H](NC(=O)OC(C)(C)C)c4ccccc4)C[C@@](O)([C@@H](OC(=O)c4ccccc4)[C@H]21)C3(C)C [Docetaxel] + CCN(CC)CCCCNc1ncc2cc(-c3cc(OC)cc(OC)c3)c(NC(=O)NC(C)(C)C)nc2n1 [PD173074] (first compound 0.0001 µM, partner dose 0.1 µM) | 692% | 473% | 206% | 30.8% | 899% | 466% | 150% | 670% | 192% | 117% | 746% | 928% | 165% | 161% | 117% | 59.6%
6 | CS(=O)(=O)c1ccc(C(=O)Nc2ccc(Cl)c(-c3ccccn3)c2)c(Cl)c1 [vismodegib] + O=c1cc(-c2cccc3c2Sc2ccccc2S3)oc(N2CCOCC2)c1 [KU55933] (first compound 1 µM, partner dose 1 µM) | 176% | 187% | 346% | 95.2% | 109% | 23.2% | 23.1% | 216% | 118% | 263% | 93.5% | 31.4% | 85.9% | 62.8% | 89.2% | 138%
7 | CCN(CC)CCNC(=O)c1c(C)[nH]c(/C=C2\C(=O)Nc3ccc(F)cc32)c1C [sunitinib] + Cc1cc(N2CCOCC2)cc2[nH]c(-c3c(NC[C@@H](O)c4cccc(Cl)c4)cc[nH]c3=O)nc12 [BMS536924] (first compound 0.4 µM, partner dose 0.2 µM) | 190% | 136% | 99.5% | 94.5% | 50.9% | 151% | 83.2% | 74.7% | 155% | 141% | 48.7% | 85.2% | 145% | 154% | 104% | 171%
8 | C[C@@H](N)c1ccc(C(=O)Nc2ccnc3[nH]ccc23)cc1 + Cn1cc(/C=C2\C(=O)Nc3cccnc32)c2ccccc21 [GW441756] (first compound 0.4 µM, partner dose 0.4 µM) | 78.9% | 152% | 58.2% | 84.6% | 248% | 77.3% | 117% | 230% | 193% | 151% | 116% | 131% | 94.7% | 63.5% | 85.9% | 174%
9 | CS(=O)(=O)c1ccc(C(=O)Nc2ccc(Cl)c(-c3ccccn3)c2)c(Cl)c1 [vismodegib] + N#Cc1c(O)c2c(-c3ccc(-c4ccccc4O)cc3)csc2[nH]c1=O [A769662] (first compound 1 µM, partner dose 2 µM) | 100% | 420% | 71.3% | 36.1% | 63.2% | 92.1% | 54.9% | 139% | 175% | 69.7% | 44.7% | 104% | 76% | 38.7% | 90.9% | 26.9%
10 | Cn1cnc2c(F)c(Nc3ccc(Br)cc3Cl)c(C(=O)NOCCO)cc21 [selumetinib] + O=C(CCCCCCC(=O)Nc1ccccc1)NO [vorinostat] (first compound 0.015 µM, partner dose 0.08 µM) | 140% | 188% | 179% | 107% | 60% | 71.3% | 83.1% | 27.2% | 112% | 165% | 77.2% | 35.2% | 102% | 96% | 116% | 72.6%
11 | COc1ccc(C2=N[C@@H](c3ccc(Cl)cc3)[C@@H](c3ccc(Cl)cc3)N2C(=O)N2CCNC(=O)C2)c(OC(C)C)c1 [Nutlin-3] + COc1ccc(COc2ccc(Cc3cnc(N)nc3N)cc2OC)cc1 [GW2580] (first compound 0.1 µM, partner dose 1 µM) | 101% | 84.8% | 41.7% | 131% | 101% | 127% | 33.8% | 166% | 276% | 63% | 113% | 77% | 119% | 182% | 97.2% | 77.7%
12 | CC1(C)CCC(c2ccc(Cl)cc2)=C(CN2CCN(c3ccc(C(=O)NS(=O)(=O)c4ccc(N[C@H](CCN5CCOCC5)CSc5ccccc5)c(S(=O)(=O)C(F)(F)F)c4)cc3)CC2)C1 + Cc1ccc(NC(=O)c2cccc(N(C)C)c2)cc1NC(=O)c1ccc(O)cc1 [ZM336372] (first compound 0.4 µM, partner dose 2 µM) | 368% | 166% | 281% | 62.6% | 293% | 141% | 100% | 48.5% | 176% | 148% | 291% | 182% | 1160% | 65.1% | 195% | 43.4%
13 | C[C@@H](N)c1ccc(C(=O)Nc2ccnc3[nH]ccc23)cc1 + COc1cc2ncnc(Nc3ccc(Oc4ccccc4)cc3)c2cc1OC [SrcI1] (first compound 0.4 µM, partner dose 2 µM) | 201% | 249% | 127% | 142% | 305% | 71.8% | 74.6% | 167% | 38.1% | 322% | 73.9% | 210% | 219% | 68.7% | 77.3% | 198%
14 | CC1(C)CCC(c2ccc(Cl)cc2)=C(CN2CCN(c3ccc(C(=O)NS(=O)(=O)c4ccc(N[C@H](CCN5CCOCC5)CSc5ccccc5)c(S(=O)(=O)C(F)(F)F)c4)cc3)CC2)C1 + CN(C)S(=O)(=O)c1ccc2c(c1)/C(=C/c1cc3c([nH]1)CCCC3)C(=O)N2 [SU6656] (first compound 0.4 µM, partner dose 0.4 µM) | 272% | 80.9% | 168% | 75% | 28.5% | 78.4% | 85% | 196% | 121% | 137% | 524% | 133% | 1110% | 55.4% | 99.2% | 36.7%
15 | CC(=O)O[C@@]12CO[C@@H]1C[C@H](O)[C@@]1(C)C(=O)[C@H](O)C3=C(C)[C@@H](OC(=O)[C@H](O)[C@@H](NC(=O)OC(C)(C)C)c4ccccc4)C[C@@](O)([C@@H](OC(=O)c4ccccc4)[C@H]21)C3(C)C [Docetaxel] + C=CCn1c(=O)c2cnc(Nc3ccc(N4CCN(C)CC4)cc3)nc2n1-c1cccc(C(C)(C)O)n1 [MK1775] (first compound 0.0001 µM, partner dose 0.02 µM) | 873% | 219% | 330% | 112% | 161% | 477% | 200% | 107% | 287% | 238% | 560% | 1010% | 267% | 135% | 146% | 104%

Retrieved one by one from above, 2 records:
Row | SMILES | cleaved PARP positive nuclei fraction (MZ2-MEL) | cleaved PARP positive nuclei fraction (MeWo) | cleaved PARP positive nuclei fraction (RPMI7951) | cleaved PARP positive nuclei fraction (RVH-421) | cleaved PARP positive nuclei fraction (SkMel28) | cleaved PARP positive nuclei fraction (SkMel2) | cleaved PARP positive nuclei fraction (SkMel30) | cleaved PARP positive nuclei fraction (SkMel5) | cleaved PARP positive nuclei fraction (UACC257) | cleaved PARP positive nuclei fraction (UACC62) | cleaved PARP positive nuclei fraction (WM115) | cleaved PARP positive nuclei fraction (WM1716) | cleaved PARP positive nuclei fraction (WM1745) | cleaved PARP positive nuclei fraction (WM3526) | cleaved PARP positive nuclei fraction (WM3619) | cleaved PARP positive nuclei fraction (WM451Lu)
15 | CC(=O)O[C@@]12CO[C@@H]1C[C@H](O)[C@@]1(C)C(=O)[C@H](O)C3=C(C)[C@@H](OC(=O)[C@H](O)[C@@H](NC(=O)OC(C)(C)C)c4ccccc4)C[C@@](O)([C@@H](OC(=O)c4ccccc4)[C@H]21)C3(C)C [Docetaxel] + C=CCn1c(=O)c2cnc(Nc3ccc(N4CCN(C)CC4)cc3)nc2n1-c1cccc(C(C)(C)O)n1 [MK1775] (first compound 0.0001 µM, partner dose 0.02 µM) | 873% | 219% | 330% | 112% | 161% | 477% | 200% | 107% | 287% | 238% | 560% | 1010% | 267% | 135% | 146% | 104%
7 | CCN(CC)CCNC(=O)c1c(C)[nH]c(/C=C2\C(=O)Nc3ccc(F)cc32)c1C [sunitinib] + Cc1cc(N2CCOCC2)cc2[nH]c(-c3c(NC[C@@H](O)c4cccc(Cl)c4)cc[nH]c3=O)nc12 [BMS536924] (first compound 0.4 µM, partner dose 0.2 µM) | 190% | 136% | 99.5% | 94.5% | 50.9% | 151% | 83.2% | 74.7% | 155% | 141% | 48.7% | 85.2% | 145% | 154% | 104% | 171%
